This assay can be described thus: qHTS Assay to Find Inhibitors of Chronic Active B-Cell Receptor Signaling. The following applies: ABC-DLBCL IkBa-CBG/CBR reporter, luminescence ratio (green luciferase fused to IkBa over red control in TMD8 lymphoma cells), 4 h. Put shortly: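 TMD8 human ABC-DLBCL cells with doxycycline-inducible IκBα–green luciferase fusion and unfused red luciferase, in 0.5% FBS medium; compounds up to 46 uM, 4 h at 37C. Green/red luminescence ratio, filter-overlap corrected, fitted to concentration-response curves.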
(In qHTS, concentration-response curves come from the screen itself.)

[1] abbreviates: measured here: CBR red luminescence, cell number.
Setting [2] is: measured here: IkBa-CBG green luminescence.

One may read the AC50 as the midpoint of the concentration-response curve, whichever way the signal moves.

The other results are listed elsewhere or left out. Shown are side measurements of this screen, not its main read-out; they come without a call. The list favours compounds with an active or inconclusive main result. Words in brackets tell the shape of the fitted curve; partial curves, single points and poor fits give uncertain potencies.

Take `CC(=O)c1sc2nsc(SCCN3CCCC3)c2c1N`: the concentration at half-maximal activity (AC50) under setting [1] is 17.8 µM [falling, single point].

Regarding `Cc1ccc(/C=C/C(=O)O)cc1S(=O)(=O)N1CCC(Cc2ccccc2)CC1`, under setting [1], the AC50 was 14.1 µM [falling, single point]. Same read-out and setting: in the case of `CN(NC1OC(=O)c2ccccc21)c1ccc(C(F)(F)F)cc1[N+](=O)[O-]` (centres undefined) it was 0.794 µM [rising, partial curve, poor fit]; in that of `N#CCC(=O)Nc1ccc(C(=O)OCC(=O)NC(=O)NCc2ccco2)cc1`, 20.6 µM [falling, single point]; in that of `COC(=O)C1=C(C)N(C(C)c2ccccc2)C(=O)C1` (centres undefined), 14.6 µM [falling, partial curve, poor fit].

With `N#C/C(=C\c1ccc(O)c(O)c1)C(=O)NCCc1ccccc1`, the AC50 under setting [1] is 25.9 µM [falling, single point]. Consider `COc1ccc(C(=O)c2ccc(N(C)C)cc2)c2ccccc12`, for which the AC50 reads like this: under setting [1], 7.31 µM [rising, partial curve]; under setting [2], 9.2 µM [falling, partial curve].

Consider `COc1ccc(NC(=O)Nc2nnc(-c3ccco3)s2)cc1`, for which, under setting [1], the AC50 is 6.31 µM [rising, single point]. `Cc1ccc(OC(F)F)c(NC(=O)Nc2cccc(C(F)(F)F)c2)c1`: the AC50 reads like this: under setting [1], 25.9 µM [falling, single point]; under setting [2], 16.4 µM [rising, partial curve, poor fit].

Regarding `COc1cc2c(cc1OC)C(C)N(S(=O)(=O)c1cnc(Cl)c(Cl)c1)CC2` (centres undefined), the AC50 under setting [1] is 14.1 µM [rising, partial curve, poor fit] and the AC50 under setting [2] was 10 µM [falling, partial curve]. Take `O=C(NCc1nc2ccccc2[nH]1)C1=C[C@@H](c2csc3ccccc23)C[C@@H](OCCCCO)O1`: the AC50 under setting [1] was 11.2 µM [falling, partial curve, poor fit].

Turning to `Cc1ccc(Cl)c(OCCN2CCCC(C)C2)c1` (centres undefined), the AC50 under setting [1] was 6.51 µM [rising, single point]. Still for that read-out and setting: in the case of `Cc1ccc(-n2nc3ccc(NC(=O)c4ccco4)cc3n2)cc1` it was 1.46 µM [rising, partial curve, poor fit].

Regarding `Fc1cccc2sc(Nc3nnc(-c4ccccc4)o3)nc12`, the AC50 under setting [1] was 2.59 µM [falling, partial curve] and the AC50 under setting [2] was 5.8 µM [falling, full curve]. As for `N#CC1(C#N)CC(C=O)=C(N)C1(C#N)CC(=O)C12CC3CC(CC(C3)C1)C2` (centres undefined), under setting [1], the AC50 is 20.6 µM [falling, single point].

`Cc1cccc(NC(=O)CN(CC2CCCO2)C(=O)c2oc3ccccc3c2C)c1C` (centres undefined): under setting [1], the AC50 is 25.9 µM [rising, single point]. On the same count and under the same terms, with `O=C(COc1ccc2cc(Br)ccc2c1)N1CCOCC1` the figure was 4.61 µM [falling, single point]; with `O=C(COC(=O)c1ccc(NS(=O)(=O)c2cccs2)cc1O)Nc1nc2ccccc2s1`, 15.8 µM [falling, single point]; with `COc1ccc(C(=O)Nc2ccc3nc(C)c(C)nc3c2)cc1`, 3.55 µM [falling, partial curve, poor fit]. The same measure, in the same setting: with `Nc1c(C(=O)Nc2cccc(C(=O)O)c2)sc2nc3c(cc12)CCCC3` the figure was 15.8 µM [falling, single point]. Still for that read-out and setting: in the case of `O=c1[nH]c(CCl)nc2cc(-c3ccc(F)cc3)sc12` it was 11.2 µM [falling, partial curve, poor fit]; in that of `COc1ccccc1C(O)(C(=O)N(NC(C)=O)c1ccccc1)c1ccccc1OC`, 35.5 µM [rising, partial curve, poor fit]. On to `Fc1ccc(/C=N/NC(=S)Nc2cccnc2)cc1`, for which the AC50 by setting is: under setting [1], 3.98 µM [rising, partial curve, poor fit]; under setting [2], 10 µM [falling, partial curve]. As to `COc1nnc(-c2ccc(N3CCOCC3)c(NC(=O)c3ccccc3)c2)c2ccccc12`, the AC50 under setting [1] was 3.66 µM [rising, full curve, poor fit]. Consider `CN=C1N(C)C[C@@H]2[C@@H]3C(=O)N(C)C(=O)[C@@H]3[C@](C)(C(=O)OC)N12`, for which, under setting [1], the AC50 was 29.1 µM [rising, single point]. The same measure, in the same setting: in the case of `Cn1c(N)c(C(=O)COC(=O)c2ccc(Br)o2)c(=O)n(C)c1=O` it was 6.31 µM [rising, partial curve, poor fit]; in that of `Cc1oc(-c2cccs2)nc1CS(=O)CC(=O)NCc1ccc2c(c1)OCO2` (centres undefined), 3.98 µM [rising, single point]. On the same count and under the same terms, with `CN(c1cc(=O)n2ccccc2n1)C1CCCCC1` the figure was 1.12 µM [rising, full curve, poor fit]. Still for that read-out and setting: with `CCCc1[nH]n(-c2nc3ccccc3s2)c(=O)c1C=NCC(C)C` the figure was 23.1 µM [falling, single point]; with `C/C(=N\NC(=O)c1ccccc1)c1ccc(NC(=O)c2cccs2)cc1`, 16.4 µM [falling, partial curve, poor fit]; with `COCc1[nH]nc2c1C(c1c(F)cccc1Cl)C(C#N)=C(N)O2` (centres undefined), 10 µM [falling, partial curve, poor fit].

As for `COc1ccc(C(C)C)cc1S(=O)(=O)N1CCN(C)CC1`, under setting [1], the concentration at half-maximal activity (AC50) is 20.6 µM [rising, single point].

With `Cc1[nH]n2cnnc2c(=O)c1Br`, the AC50 under setting [1] is 35.5 µM [falling, single point].

Turning to `CCOC(=O)c1cc(-c2ccc(OC)cc2)n(CCC(=O)NCCc2ccc(OCC)c(OCC)c2)c1C`, the half-maximal activity concentration (AC50) under setting [1] is 3.16 µM [rising, full curve, poor fit].

For `CCOC(=O)CCCCCN1C(=O)c2cccc3cccc(c23)C1=O`, under setting [1], the concentration at half-maximal activity (AC50) is 7.08 µM [falling, full curve]. On the same count and under the same terms, with `Cc1nc2c(cc(Oc3ccc(S(=O)(=O)N4CCOCC4)cn3)c3ccsc32)s1` the figure was 35.5 µM [falling, single point]. Take `O=C(N/N=C/C(Br)=C\c1ccccc1)c1ccco1`: the AC50 is 35.5 µM [falling, single point] under setting [1] and 11.2 µM [falling, partial curve, poor fit] under setting [2]. In the case of `Cc1ccc(-c2nnc(N(C)C(=O)c3ccccn3)s2)cn1`, the AC50 under setting [1] is 0.00517 µM [rising, full curve, poor fit].

`CN(Cc1ccc(Cl)cc1)C(=O)CCl`: under setting [1], the half-maximal activity concentration (AC50) is 11.2 µM [falling, partial curve, poor fit]. Turning to `Oc1ccccc1N=Cc1c(O)ccc2ccccc12`, the AC50 under setting [1] was 10 µM [falling, partial curve]. Still for that read-out and setting: with `Cc1nc2c(oc3ccc(Cl)cc32)c(=O)[nH]1` the figure was 10 µM [falling, partial curve, poor fit]; with `COc1cc(CNc2ccc(CNc3ncn[nH]3)cc2)cc(Cl)c1OCc1ccccc1`, 29.1 µM [falling, single point]; with `CC1(C)Cc2ccccc2C(NNC(=O)c2ccccc2)=N1`, 6.31 µM [falling, full curve]. Same read-out and setting: in the case of `N#CCSc1nnc(Cc2cccc3ccccc23)n1C1CCCCC1` it was 35.5 µM [falling, single point]; in that of `CCOC(=O)CC1=C(C(=O)OCC)C(c2ccncc2)C(C#N)=C(N)O1` (centres undefined), 35.5 µM [falling, single point]. In the case of `COc1ccccc1C(=O)NC(CCSC)C(=O)NNC(=O)C(C)Oc1ccccc1F` (centres undefined), the AC50 under setting [1] was 23.1 µM [falling, partial curve]. `COc1cc(OC)c(NC(=O)CSc2nc3ccncc3[nH]2)cc1Cl`: the half-maximal activity concentration (AC50) under setting [1] was 4.11 µM [rising, full curve, poor fit]. `CNC(=S)NNC(=O)c1cn(C)nc1C`: the AC50 under setting [1] was 12.6 µM [falling, partial curve]. As to `CCC(NC(=S)NCc1ccc(F)cc1)c1ccc(C(C)C)cc1` (centres undefined), under setting [1], the AC50 is 20 µM [falling, single point]. On the same count and under the same terms, in the case of `Cc1ccc(C)c2sc(NC(=O)c3nc4ccccc4s3)nc12` it was 0.058 µM [falling, full curve]. On the same count and under the same terms, with `CCc1ccc(Nc2ccc(C(=O)O)cc2[N+](=O)[O-])cc1` the figure was 28.2 µM [falling, single point]; with `Cc1nn(-c2ccccc2)c(C)c1/C=N/NC(=O)c1cc(-c2cccc3ccccc23)n[nH]1`, 11.6 µM [rising, partial curve]; with `COc1ccccc1-c1nnc(SCC(=O)Nc2ccc(N3CCOCC3)cc2)n1N`, 29.1 µM [rising, single point].

Consider `CCCCSc1cc(C)nc(N)n1`, for which the AC50 under setting [1] is 22.4 µM [rising, partial curve, poor fit]. For `COc1cccc(NC(=O)c2ccccc2OCc2c(C)noc2C)c1`, the AC50 under setting [1] is 2.06 µM [rising, partial curve, poor fit].

Regarding `c1ccc(Cn2cc(-c3cccnc3)cn2)cc1`, under setting [1], the AC50 is 29.1 µM [falling, single point]. On to `O=C(Nc1ccccc1)c1ccc(NCCc2ccccc2)c([N+](=O)[O-])c1`, for which the AC50 under setting [1] is 1.46 µM [rising, full curve, poor fit].

Turning to `O=C(N/N=C/c1ccsc1)c1ccccn1`, the AC50 under setting [1] was 10 µM [falling, partial curve]. The same measure, in the same setting: in the case of `COc1cc2sc3ccc(-c4ccc(CN5CCOCC5)cc4)cc3c(=O)c2cc1OC` it was 8.2 µM [falling, partial curve, poor fit]; in that of `O=C(CC1Nc2ccccc2NC1=O)c1ccccc1` (centres undefined), 2.51 µM [falling, full curve]. As to `O=C(NCc1n[nH]c(=O)c2ccccc12)C1CC(=O)N(c2ccc(Cl)cc2)C1` (centres undefined), the half-maximal activity concentration (AC50) under setting [1] is 20.6 µM [falling, single point]. For the compound `COc1cc(C(=O)NCc2nnc(SCC(=O)Nc3nc4ccccc4s3)o2)cc(OC)c1OC`, the AC50 under setting [2] was 23.1 µM [falling, single point].

Take `CC(=O)c1ccc(Nc2ccc(-c3ccccc3F)nn2)cc1`: the AC50 under setting [1] was 35.5 µM [falling, single point].

Source of the values: PubChem BioAssay AID493014 (National Center for Advancing Translational Sciences (NCATS), 2011).
